Data as given in article PMC10959665.
No constants are given. Whether binding was seen depends on the method and setting. Some results given as binding are weak or reduced against the parent protein; the word gives no strength.

Chains of the proteins cited; added tags and fusions are not shown. Lines headed by an entry give the natural chain unless they say otherwise; changes in a name come on top. Residues count along the entry.
UniProt P70452: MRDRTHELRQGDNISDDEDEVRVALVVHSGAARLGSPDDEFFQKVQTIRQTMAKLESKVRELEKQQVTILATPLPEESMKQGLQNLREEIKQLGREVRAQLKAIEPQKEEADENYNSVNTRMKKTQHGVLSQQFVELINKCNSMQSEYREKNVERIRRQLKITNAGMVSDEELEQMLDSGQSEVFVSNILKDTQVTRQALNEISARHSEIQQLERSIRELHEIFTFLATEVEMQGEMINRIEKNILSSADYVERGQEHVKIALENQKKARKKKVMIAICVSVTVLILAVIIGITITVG
UniProt P63044, residues 2-94: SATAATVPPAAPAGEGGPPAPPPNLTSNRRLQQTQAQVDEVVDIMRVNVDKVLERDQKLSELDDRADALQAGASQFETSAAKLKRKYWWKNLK

B1: alpha soluble N-ethylmaleimide-sensitive factor attachment protein (α-SNAP), wild type (protein, UniProt P54920 1-295)
chain: MDNSGKEAEAMALLAEAERKVKNSQSFFSGLFGGSSKIEEACEIYARAANMFKMAKNWSAAGNAFCQAAQLHLQLQSKHDAATCFVDAGNAFKKADPQEAINCLMRAIEIYTDMGRFTIAAKHHISIAEIYETELVDIEKAIAHYEQSADYYKGEESNSSANKCLLKVAGYAALLEQYQKAIDIYEQVGTNAMDSPLLKYSAKDYFFKAALCHFCIDMLNAKLAVQKYEELFPAFSDSRECKLMKKLLEAHEEQNVDSYTESVKEYDSISRLDQWLTTMLLRIKKTIQGDEEDLR

Columns and labels:
[1] = molecular target: t-SNAREs: syntaxin-4/SNAP-23 on liposomes (UniProt P70452); assay: liposome co-flotation; t-SNARE liposomes incubated with GST-V2CD for 1 h at 4 °C to assemble the cis-SNARE complex; 37 °C for 1 h without NSF and α-SNAP; Nycodenz gradient flotation; SDS-PAGE, Coomassie blue; both purified
[2] = molecular target: t-SNAREs: syntaxin-4/SNAP-23 on liposomes (UniProt P70452); assay: condition: only with 1 μM NSF, 2 μM α-SNAP, 2.5 mM ATP and 5 mM MgCl2/EDTA, also with 5 μM Munc18c; liposome co-flotation; preformed cis-SNARE complex on liposomes incubated with 1 μM NSF, 2 μM α-SNAP, 2.5 mM ATP and 5 mM MgCl2/EDTA, without or with 5 μM Munc18c, at 37 °C for 1 h; Nycodenz gradient flotation; SDS-PAGE, Coomassie blue; both purified
[3] = molecular target: t-SNAREs: syntaxin-4/SNAP-23 on liposomes (UniProt P70452); assay: liposome co-flotation; soluble proteins incubated with t-SNARE liposomes (100% phosphatidylcholine) at 4 °C for 1 h; 5 μM SNAREs and 5 μM Munc18c or α-SNAP; Nycodenz gradient flotation; SDS-PAGE, Coomassie blue; both purified

Row | Molecule | binding [1] | binding [2] | binding [3]
1 | GST-tagged cytoplasmic domain of VAMP2 (from UniProt P63044 2-94) (domain or fragment) | binds | no binding | –
2 | B1 | – | – | binds
